Reference: paper PMC12394070
These are yes or no findings as the source states them, for the method shown. In cells and extracts the contact can be indirect. Some results given as binding are weak or reduced against the parent protein; the word gives no strength.

Chains of the proteins cited; added tags and fusions are not shown.
UniProt Q13148: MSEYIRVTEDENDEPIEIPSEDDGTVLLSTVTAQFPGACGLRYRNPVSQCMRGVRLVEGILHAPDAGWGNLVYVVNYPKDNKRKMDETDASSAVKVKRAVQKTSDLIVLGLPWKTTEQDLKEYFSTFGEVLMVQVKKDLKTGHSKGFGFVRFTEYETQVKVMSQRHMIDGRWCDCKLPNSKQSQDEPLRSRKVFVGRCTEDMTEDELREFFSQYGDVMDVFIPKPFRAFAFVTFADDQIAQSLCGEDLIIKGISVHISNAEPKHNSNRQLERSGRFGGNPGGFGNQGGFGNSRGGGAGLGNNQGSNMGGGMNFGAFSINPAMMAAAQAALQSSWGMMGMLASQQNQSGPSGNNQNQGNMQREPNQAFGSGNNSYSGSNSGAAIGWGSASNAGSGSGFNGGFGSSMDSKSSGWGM
UniProt P29590: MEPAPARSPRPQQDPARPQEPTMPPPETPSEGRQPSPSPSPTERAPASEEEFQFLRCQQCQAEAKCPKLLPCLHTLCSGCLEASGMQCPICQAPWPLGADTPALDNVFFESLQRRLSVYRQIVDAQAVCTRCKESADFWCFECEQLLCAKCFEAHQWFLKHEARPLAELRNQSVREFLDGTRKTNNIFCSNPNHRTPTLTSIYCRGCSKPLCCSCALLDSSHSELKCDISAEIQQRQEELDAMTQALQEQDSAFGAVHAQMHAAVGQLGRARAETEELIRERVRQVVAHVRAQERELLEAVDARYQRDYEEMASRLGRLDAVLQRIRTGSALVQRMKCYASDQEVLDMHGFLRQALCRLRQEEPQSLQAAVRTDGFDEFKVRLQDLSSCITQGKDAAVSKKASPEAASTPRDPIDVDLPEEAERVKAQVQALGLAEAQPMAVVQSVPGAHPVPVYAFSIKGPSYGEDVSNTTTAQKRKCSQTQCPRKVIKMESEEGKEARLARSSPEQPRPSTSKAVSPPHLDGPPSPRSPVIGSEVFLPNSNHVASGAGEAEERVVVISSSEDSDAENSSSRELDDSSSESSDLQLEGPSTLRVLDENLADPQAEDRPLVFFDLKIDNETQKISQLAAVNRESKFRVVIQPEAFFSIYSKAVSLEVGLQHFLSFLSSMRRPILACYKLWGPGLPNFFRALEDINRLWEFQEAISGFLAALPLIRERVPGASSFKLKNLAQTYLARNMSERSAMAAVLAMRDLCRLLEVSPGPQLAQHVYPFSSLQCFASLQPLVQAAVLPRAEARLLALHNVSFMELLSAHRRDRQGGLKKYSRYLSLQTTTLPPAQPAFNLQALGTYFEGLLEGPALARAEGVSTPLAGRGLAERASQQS

How the values were obtained:
[1] = target: endogenous TDP-43 (human (endogenous in HEK293T)) (UniProt Q13148); test: co-IP; IP of endogenous TDP-43 from HEK293T lysates with TDP-43-specific antibodies or rabbit IgG on protein A/G magnetic beads; coprecipitated PML detected by immunoblot
[2] = target: Flag-tagged wild-type (WT) TDP-43 (UniProt Q13148); test: co-IP; Flag-IP under nondenaturing conditions (anti-Flag agarose, 2–3 h, 4 °C, elution with Flag peptide) from HEK293T cells transfected for 48 h; IP lysis buffer 50 mM HEPES, 150 mM NaCl, 1% Triton; coprecipitated proteins detected by immunoblot

binding [1]: binds weakly
binding [2]: binds
Substance: endogenous PML (promyelocytic leukemia protein) (from UniProt P29590 1-882)
